Patent publication US7094760B2, “Peptides for treatment of inflammation and shock” (Salpep Biotechnology, Inc., priority 1996, dated 2006)

Tested on: ovalbumin-sensitized Sprague-Dawley rats, submandibular glands removed
Assay: anaphylactic hypotension and heart function (VPSP, dP/dt), Example 10
Assay type: in vivo, rat
Method: Methods: Sprague-Dawley rats (200–300 g) were sensitized with 1 mg ovalbumin and 50 ng Pertussin toxin (Sigma) (24) one month prior to experimentation. The submandibular glands were removed bilaterally 7 days prior to the experiment by previously described procedures (23). Rats were anesthetized with sodium pentobarbital (65 mg/kg) and a tracheal tube (PE240 polyethylene tubing) was inserted before performing further surgeries. The jugular vein was-cannulated for injection of ovalbumin antigen, which was given as a bolus (100 μg/kg) over 10 sec. The right carotid artery was cannulated and the cannula tip was slowly advanced into the left ventricle, as detected when diastolic pressure fell to near 0 mmHg. The ventricular cannula was connected to a TXD-310 transducer and heart function parameters were recorded using a Digi-Med Heart Performance Analyser (Micro-Med, Louisville, Ky.). The effects of anaphylaxis on heart function were analysed by comparing the changes in ventricular peak systolic pressure (VPSP), and in the rate of ventricular contraction during systole (dP/dt) and relaxation during distole (−dP/dt). Antigen was injected at 10 min. The anaphylactic response was followed for 30 min.
Very rapidly (within 1 min) after the intravenous injection of antigen into ovalbumin-sensitized rats, VPSP dropped and minimal ventricular pressures were measured at 5 min after initiation of the anaphylactic reaction.
To determine if anaphylaxis directly affected heart function, the percent changes in VPSP were plotted against percent changes in dP/dt and −dP/dt. […] By analysis of variance, the slopes of the regression lines of dP/dt and −dP/dt were not different from unity.

H-TDIFEGG-OH [SGP-T, submandibular gland peptide T, TDIFEGG]
regression line % VPSP vs % dP/dt, intercept (10 μg/kg): 0.02(±0.02) | regression line % VPSP vs % dP/dt, slope (10 μg/kg): 1.00(±0.05) | regression line % VPSP vs % −dP/dt, intercept (10 μg/kg): 0.01(±0.02) | regression line % VPSP vs % −dP/dt, slope (10 μg/kg): Y = 1.55(±0.04)X + | regression line % VPSP vs % dP/dt, slope (35 μg/kg): 1.17(±0.09) | regression line % VPSP vs % −dP/dt, intercept (35 μg/kg): 0.19(±0.03) | regression line % VPSP vs % −dP/dt, slope (35 μg/kg): Y = 1.62(±0.09)X + | slopes of the regression lines of dP/dt or −dP/dt versus saline (35 or 100 μg/kg): No differences
